{
  "source": "the supplement of paper PMC11732987",
  "about": "“Enantioselective OTUD7B fragment discovery through chemoproteomics screening and high-throughput optimisation” (Communications Chemistry, 2025)",
  "note": "Some of the results follow. The data scatter; read single values as rough.",
  "data": [
    {"test_system": "T1, NCAM1 C829", "T1 sequence (whole entry)": "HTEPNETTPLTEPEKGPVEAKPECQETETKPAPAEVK", "experiment": "log2 mean competition ratio of IA-DTB cysteine labelling (DMSO/compound) (log2 ratio); higher = stronger cysteine engagement by compound", "conditions": "50 µM; treatment time: 4 h; cell line lysate: HEK293T", "description": "(§1)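 IA-DTB competitive cysteine chemoproteomics in HEK293T RIPA lysate. Lysates were treated with compound 29 or 30 at 50 or 200 µM for 4 h, then IA-DTB (500 µM, 1 h), trypsin-digested, NeutrAvidin-enriched and analysed by diaPASEF. Competition ratio = intensity DMSO / intensity compound (n=4 treated, n=64 DMSO); binding: mean log2 CR ≥ 1 and p ≤ 0.05 plus QC filters. Target is the cysteine site.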", "values": [
      {"smiles": "O=C(CCl)N[C@@H]1CCCc2ccccc21", "log2 mean competition ratio": -0.256},
      {"smiles": "O=C(CCl)N[C@H]1CCCc2ccccc21", "log2 mean competition ratio": -0.323}
    ]},
    {"test_system": "T1, NCAM1 C829", "experiment": "log2 mean competition ratio of IA-DTB cysteine labelling (DMSO/compound) (log2 ratio); higher = stronger cysteine engagement by compound", "conditions": "200 µM; treatment time: 4 h; cell line lysate: HEK293T", "description": "as §1", "values": [
      {"smiles": "O=C(CCl)N[C@@H]1CCCc2ccccc21", "log2 mean competition ratio": -0.265},
      {"smiles": "O=C(CCl)N[C@H]1CCCc2ccccc21", "log2 mean competition ratio": -0.576}
    ]}
  ]
}
